Test results as given in patent US20210122795A1 (CITY OF HOPE, published 2021).
No constants are given. Whether binding was seen depends on the method and setting. Some binding calls cover weakened binding; strength is not graded here. For part of these data: Tags and fused reporters may be left off the sequences shown.

The chains behind the UniProt entries cited, without tags or fusion partners. Residues count along the entry.
UniProt P09793, residues 36-223: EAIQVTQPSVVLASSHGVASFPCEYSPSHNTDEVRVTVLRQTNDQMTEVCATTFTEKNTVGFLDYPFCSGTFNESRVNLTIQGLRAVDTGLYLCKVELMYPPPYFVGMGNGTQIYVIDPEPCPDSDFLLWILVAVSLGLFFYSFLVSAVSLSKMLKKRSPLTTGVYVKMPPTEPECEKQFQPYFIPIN
UniProt P16410, residues 36-161: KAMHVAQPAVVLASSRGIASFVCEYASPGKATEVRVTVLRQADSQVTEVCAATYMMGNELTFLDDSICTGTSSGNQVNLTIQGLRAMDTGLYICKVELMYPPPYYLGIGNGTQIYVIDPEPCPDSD

Experiments:
[1] = molecular target: mLcn2-Fc (unmodified, without N-terminal mask) (human); experiment: phage ELISA on immobilized mLcn2-Fc, 18 min substrate incubation; Complex = Lcn2-Fc pre-complexed with CTLA4-Fc, Blank = PBS
[2] = molecular target: mLcn2-Fc (unmodified, without N-terminal mask) (human); experiment: phage ELISA, 18 min substrate incubation; competitor CTLA4-Fc
[3] = molecular target: mLcn2-Fc (unmodified, without N-terminal mask) (human); experiment: phage ELISA on immobilized mLcn2-Fc; Complex = Lcn2-Fc pre-complexed with CTLA4-Fc, Blank = PBS
[4] = molecular target: CTLA-4 on murine regulatory T-cells (splenocytes of Foxp3gfp/KI DBA/2 mice) (mouse) (UniProt P09793); experiment: flow cytometry, AF647-labeled construct on splenocytes of Foxp3gfp/KI DBA/2 mice, gated on DAPI-negative GFP+ regulatory T-cells
[5] = molecular target: Monomeric extracellular CTLA-4 (Homo sapiens (Human)) (UniProt P16410); experiment: SPR, analyte over monomeric extracellular CTLA-4 immobilized at low density on a CM5 chip, baseline subtracted
[6] = molecular target: CTLA-4 on murine regulatory T-cells (splenocytes of Foxp3gfp/KI DBA/2 mice) (mouse) (UniProt P09793); experiment: flow cytometry, AF647-labeled construct on splenocytes of Foxp3gfp/KI DBA/2 mice, gated on regulatory T cells
[7] = molecular target: Monomeric extracellular CTLA-4 (Homo sapiens (Human)) (UniProt P16410); experiment: SPR, analyte over immobilized monomeric CTLA-4
[8] = molecular target: human CTLA4-Fc transiently expressed by Tni insect cells (human) (UniProt P16410); experiment: flow cytometry, AF647-labeled construct on Tni insect cells induced to express human CTLA4-Fc; uninfected cells as negative control
[9] = molecular target: Monomeric extracellular CTLA-4 (Homo sapiens (Human)) (UniProt P16410); experiment: SPR; monomeric CTLA-4 chemically tethered to the chip
[10] = molecular target: human CTLA4-Fc transiently expressed by Tni insect cells (human) (UniProt P16410); experiment: flow cytometry; Alexa Fluor-647 conjugate on Tni insect cells expressing human CTLA4-Fc
[11] = molecular target: CTLA-4 on murine regulatory T-cells (splenocytes of Foxp3gfp/KI DBA/2 mice) (mouse) (UniProt P09793); experiment: flow cytometry; Alexa Fluor 647-labeled construct on murine regulatory T-cells (GFP+), four experiments on two spleens
[12] = molecular target: CTLA-4 on murine regulatory T-cells (splenocytes of Foxp3gfp/KI DBA/2 mice) (mouse) (UniProt P09793); experiment: flow cytometry; AF647-labeled construct on gated regulatory T cells of mouse splenocytes
[13] = molecular target: mLcn2-Fc (unmodified, without N-terminal mask) (human); experiment: phage ELISA on immobilized mLcn2-Fc, triplicates; wells with mLcn2-Fc pre-complexed with CTLA-4-Fc and PBS wells as controls
[14] = molecular target: mLcn2-Fc (unmodified, without N-terminal mask) (human); experiment: phage ELISA, triplicates; competitor CTLA-4-Fc

Measured: binding

EKWFRFM [Phage clone 6, surface-bound peptide EKWFRFM]
binds: [1] | [2]

FTPWPEA [Phage clone 3, surface-bound peptide FTPWPEA]
binds: [2] | [3]

YGLGFNF [Phage clone 1, surface-bound peptide YGLGFNF]
binds: [1] | [2]

RIDETLQ [Phage clone 2, surface-bound peptide RIDETLQ]
binds: [1] | [2]

B1: mLcn2-Fc (unmodified, without N-terminal mask) (Fc fusion)
chain: QDSTSDLIPAPPLSKVPLQQNFQDNQFHGKWYVVGLAGNRILRDDQHPMNMYATIYELKEDKSYNVTSVISSHKKCEYTIATFVPGSQPGEFTLGNIKSYGDKTSYLVRVVSTDYNQYAVVFFKLAEDNAEFFAITIYGRTKELASELKENFIRFSKSLGLPENHIVFPVPIDQCIDG
notes: also called dimeric mLCN2-Fc; unmodified mLcn2-Fc; not shown: flexible linker between mLcn2 and Fc; human IgG1 Fc domain
not listed: [1] | [2] | [3] | [13] | [14]
binds: all other assays above

B2: Unmasked mLcn2-Fc (masked mLcn2-Fc treated with MMP9) (Fc fusion, not shown: small tags and cut ends; a dimerising Fc or GST)
chain: B1 chain
not listed: [1] | [2] | [3] | [13] | [14]
binds: all other assays above

WPEWDLW [Phage clone 4, surface-bound peptide WPEWDLW]
binds: [2] | [3]

YLELMHS [Phage clone 8, surface-bound peptide YLELMHS]
binds: [2] | [3]

WSPLPFM [Phage clone 16, surface-bound peptide WSPLPFM]
binds: [13] | [14] | [2] | [3]

SVLPPFM [Phage clone 12, surface-bound peptide SVLPPFM]
binds: [2] | [3]
